# Record: PubChem BioAssay AID652272 (Drosophila RNAi Screening Center, 2013)
# Test: 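Finding fly genes that regulate Hedgehog signal transduction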 (primary screen)
# Cells: Drosophila clone 8 (Cl8) cells
# Reagent: long dsRNA against Drosophila genes
# Measured: 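Firefly light from a Hedgehog-responsive ptc promoter reporter and Renilla reference light, both read on a plate reader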
# Reading the numbers: firefly Hh reporter signal: higher = more ptc reporter light; Renilla reference signal: higher = more Renilla control light
# Rule for the call: 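Hit when the z-score averaged over two replicates is under -2 or over +3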
# Meaning of the calls: active = hit: reporter lowered or raised; inactive = not a hit
# In all, the deposit lists about 21,000 reagents; below is an unselected part of those that have a named target and a result. Over the whole deposit, 503 (2.4%) are marked active. 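Raw plate light values, not normalised; calls rest on replicate z-scores that were not deposited; hits include reporter decreases as well as increases.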 Not given: the amount of reagent, the time to read-out.
The opening 2 records, to show the layout:
gene,amplicon,"firefly Hh reporter signal, replicate 1","firefly Hh reporter signal, replicate 2","firefly Hh reporter signal, replicate 3","Renilla reference signal, replicate 1","Renilla reference signal, replicate 2",outcome
CG17819,DRSC15279,5.88e5,1.74e5,,28305,12077,inactive
babo,DRSC07581,71329,48915,,2004,4235,inactive

The listing, from the start:
gene,amplicon,"firefly Hh reporter signal, replicate 1","firefly Hh reporter signal, replicate 2","firefly Hh reporter signal, replicate 3","Renilla reference signal, replicate 1","Renilla reference signal, replicate 2",outcome
CG17819,DRSC15279,5.88e5,1.74e5,,28305,12077,inactive
babo,DRSC07581,71329,48915,,2004,4235,inactive
Or85c,DRSC16766,71313,1.48e5,,3222,4088,inactive
otu,DRSC18811,76405,1.99e5,,2813,8684,inactive
CG15461,DRSC20532,73719,2.55e5,,2529,10345,inactive
CG9263,DRSC03176,1.63e5,65242,,4384,6322,inactive
dyw,DRSC18228,61572,2.06e5,,1841,8187,inactive
CG30416,DRSC04565,93640,77192,,1869,7273,inactive
alt,DRSC15315,1.11e5,66672,,5456,2454,inactive
ast,DRSC00803,1.31e5,46006,,4338,2201,inactive
Capa,DRSC15058,1.33e5,1.03e5,,3280,3088,inactive
CG7497,DRSC10857,93944,54619,,4378,2073,inactive
CG34302,DRSC12751,1.60e5,,,2369,,inactive
ric8a,DRSC18093,70754,94295,,1249,2211,inactive
betaNACtes5,DRSC19100,5.45e5,1.85e5,,30635,3524,inactive
Paris,DRSC00451,1.07e5,1.03e5,,4394,4204,inactive
PolI,DRSC16267,1.01e5,1.44e5,,3833,3805,inactive
CG7692,DRSC10902,1.14e5,,,1988,3704,inactive
mwh,DRSC07949,82572,1.46e5,,2043,5082,inactive
mwh,DRSC08382,77921,47267,,3024,2611,inactive
CG32066,DRSC10652,1.13e5,1.03e5,,5244,3946,inactive
CG32066,DRSC10653,67346,34456,58448,4043,4608,inactive
Trim9,DRSC02242,86506,52743,,2164,4805,inactive
mRpS31,DRSC10556,1.15e5,64651,,3409,2104,inactive
CG31343,DRSC15887,1.06e5,85904,,5414,3324,inactive
CG2841,DRSC17699,6.77e5,9.25e5,2.53e5,34381,6460,inactive
CG2841,DRSC18824,50397,2.29e5,,1010,8241,inactive
Mcm5,DRSC16735,52402,96202,,1529,2662,inactive
CG15141,DRSC02441,57348,48772,,2508,1613,inactive
CG15141,DRSC02442,1.12e5,67689,,2826,6032,inactive
TyrRS-m,DRSC04286,1.05e5,78098,,3781,2228,inactive
fkh,DRSC16949,95815,1.39e5,,3508,3795,inactive
CG15236,DRSC04970,1.46e5,79600,,3441,5835,inactive
Cad87A,DRSC16161,98658,82320,,4144,3559,inactive
CG14007,DRSC02339,89652,52161,,2577,5402,inactive
MED20,DRSC03463,60978,30582,,1952,3173,inactive
CG3226,DRSC18296,1.02e5,97076,,1649,1757,inactive
IntS14,DRSC00668,1.07e5,64616,,5844,3909,inactive
Dcp-1,DRSC04609,1.19e5,78105,,4509,3719,inactive
Chpf,DRSC19491,78118,2.63e5,,2138,9122,inactive
Chpf,DRSC19893,89249,65409,,1849,1766,inactive
cact,DRSC03501,86752,51932,,5061,2604,inactive
CG31344,DRSC16069,1.14e5,1.01e5,,4086,3232,inactive
Plod,DRSC10601,82800,61552,,4020,2677,inactive
Plod,DRSC10602,54992,46903,37356,4965,2728,inactive
CG34217,DRSC05083,1.03e5,1.51e5,,2784,7338,inactive
FeCH,DRSC16948,1.06e5,66880,,2617,2433,inactive
Spn28F,DRSC03615,90413,40973,,2512,4709,inactive
CG30480,DRSC06736,83008,44032,,2176,3604,inactive
CG17195,DRSC15188,5.49e5,1.04e5,,26875,3058,inactive
CG13002,DRSC19521,78171,1.68e5,,1985,6700,inactive
Set1,DRSC20930,1.05e5,1.54e5,,3255,5813,inactive
Set1,DRSC20931,1.00e5,1.67e5,,2853,6308,inactive
Nse4,DRSC02239,1.05e5,86993,,2434,7298,inactive
Efhc1.1,DRSC20135,66944,2.11e5,,2187,7723,inactive
CstF64,DRSC16616,6.19e5,1.06e5,,37292,4425,inactive
CD98hc,DRSC15453,54301,1.12e5,,1866,23668,inactive
